PubChem BioAssay AID1259308 – NCATS | 2017
The deposit covers about 59,000 reagents; below is an unselected part. Of all reagents, about 1,510 (2.6%) were called active. 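Calls use total luciferase alone and ignore viability, so some active siRNAs may act by altering cell number.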 Unmarked entries are inactive. Reagents against one gene are numbered here.

Assay: 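Genes whose loss raises luciferase production in HEK293 cells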 (primary screen)
Cells: human HEK293 embryonic kidney cells stably expressing firefly luciferase (HEK-CMV-Luc2-Hygro)
Knock-down reagent: single siRNA against human genes, 0.8 pmol siRNA per well
Duration: 72 h
Detection: 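Luciferase light (ONE-Glo) measured on one replicate plate set and viability (CellTiter-Glo) on the other, scaled to a negative control siRNA, with robust z-scores and luciferase per cell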
Scale: total luciferase, z-score and total luciferase, % of control: higher = more reporter protein produced; luciferase per cell, z-score: higher = more reporter output per viable cell; viable cells, % of control: higher = more viable cells
Hit rule: 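Active when the median/MAD z-score for overall luciferase is greater than 3; a gene was taken forward for validation with new siRNAs if at least two of its three siRNAs passed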
Meaning of the calls: active = raised luciferase; inactive = no rise

gene knocked down	reagent	total luciferase, z-score	total luciferase, % of control	luciferase per cell, z-score	viable cells, % of control
SKP2 (GeneID 6502)	1	1.65	115	1.87	78.2
SKP2 (GeneID 6502)	2	0.894	99.7	0.369	101
SKP2 (GeneID 6502)	3	1.71	116	0.608	110
DCC (GeneID 1630)	1	2.53	132	2.05	86.2
DCC (GeneID 1630)	2	0.0778	83.4	-0.492	106
DCC (GeneID 1630)	3	3.42 (active)	150	2.45	87.9
ST8SIA4 (GeneID 7903)	1	0.421	90.3	0.27	93.9
ST8SIA4 (GeneID 7903)	2	1.27	107	1.87	73.2
ST8SIA4 (GeneID 7903)	3	0.958	101	0.566	97.2
SLIT3-AS1 (GeneID 728095)	1	-0.763	66.7	-0.619	87.7
SLIT3-AS1 (GeneID 728095)	2	-0.103	79.8	0.688	74.4
SLIT3-AS1 (GeneID 728095)	3	-0.0235	81.4	0.623	77.2
ICOS (GeneID 29851)	1	-2.64	29.5	-2.99	72.4
ICOS (GeneID 29851)	2	1.77	117	1.14	96.8
ICOS (GeneID 29851)	3	3.5 (active)	151	2.21	94.6
ACKR4 (GeneID 51554)	1	0.547	92.8	0.616	88.2
ACKR4 (GeneID 51554)	2	-1.21	57.7	-1.96	108
ACKR4 (GeneID 51554)	3	-1.55	51	-2.01	96.6
FOXK2 (GeneID 3607)	1	-0.447	73	-0.0545	82.7
FOXK2 (GeneID 3607)	2	-1.12	59.5	-0.984	86.2
FOXK2 (GeneID 3607)	3	-1.85	45	-1.83	81.5
PIGK (GeneID 10026)	1	1.05	103	1.52	76.9
PIGK (GeneID 10026)	2	-1.29	56.3	-1.88	103
PIGK (GeneID 10026)	3	-0.0542	80.8	-0.0341	91.1
TAS2R19 (GeneID 259294)	1	0.699	95.8	0.946	83.5
TAS2R19 (GeneID 259294)	2	1.54	113	2.04	73.6
TAS2R19 (GeneID 259294)	3	-0.269	76.5	-0.465	96.6
SLC48A1 (GeneID 55652)	1	-0.453	72.9	0.55	70.5
SLC48A1 (GeneID 55652)	2	-0.0282	81.3	-0.433	102
SLC48A1 (GeneID 55652)	3	-0.158	78.7	1.23	63.7
BHLHA9 (GeneID 727857)	1	-0.76	66.8	-0.801	92.1
BHLHA9 (GeneID 727857)	2	0.733	96.5	1.15	79.6
BHLHA9 (GeneID 727857)	3	0.546	92.7	0.838	83.1
GCHFR (GeneID 2644)	1	0.208	86	-0.0957	98.6
GCHFR (GeneID 2644)	2	-1.18	58.3	-0.0811	66.6
GCHFR (GeneID 2644)	3	-0.0797	80.3	-0.543	104
OR8K5 (GeneID 219453)	1	-0.472	72.5	-0.0574	82.2
OR8K5 (GeneID 219453)	2	0.602	93.9	1.24	75.7
OR8K5 (GeneID 219453)	3	-2.14	39.3	-3.04	97.8

Records above whose target name starts with A or a:
gene knocked down	reagent	total luciferase, z-score	total luciferase, % of control	luciferase per cell, z-score	viable cells, % of control
ACKR4 (GeneID 51554)	1	0.547	92.8	0.616	88.2
ACKR4 (GeneID 51554)	2	-1.21	57.7	-1.96	108
ACKR4 (GeneID 51554)	3	-1.55	51	-2.01	96.6
